One substance from doi:10.1101/2024.02.25.581584 (bioRxiv, 2024) can be followed below.

Sequences of proteins named here, by UniProt entry; tags and fusion partners are left off. A change or cut given only in a name is not applied to a line headed by its entry. A line that says so, or that is headed by a name, gives the form on record, which may keep a tag or linker.
CENP-T^6D (CENP-T^6D-GFP-Spy-tag) (Q96BT3, form named): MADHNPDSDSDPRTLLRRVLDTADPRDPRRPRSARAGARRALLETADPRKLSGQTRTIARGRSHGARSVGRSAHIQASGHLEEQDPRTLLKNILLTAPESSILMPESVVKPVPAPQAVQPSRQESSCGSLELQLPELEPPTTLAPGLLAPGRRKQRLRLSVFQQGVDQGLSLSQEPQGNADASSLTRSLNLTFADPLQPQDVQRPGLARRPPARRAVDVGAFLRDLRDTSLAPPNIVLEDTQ
UniProt O14777: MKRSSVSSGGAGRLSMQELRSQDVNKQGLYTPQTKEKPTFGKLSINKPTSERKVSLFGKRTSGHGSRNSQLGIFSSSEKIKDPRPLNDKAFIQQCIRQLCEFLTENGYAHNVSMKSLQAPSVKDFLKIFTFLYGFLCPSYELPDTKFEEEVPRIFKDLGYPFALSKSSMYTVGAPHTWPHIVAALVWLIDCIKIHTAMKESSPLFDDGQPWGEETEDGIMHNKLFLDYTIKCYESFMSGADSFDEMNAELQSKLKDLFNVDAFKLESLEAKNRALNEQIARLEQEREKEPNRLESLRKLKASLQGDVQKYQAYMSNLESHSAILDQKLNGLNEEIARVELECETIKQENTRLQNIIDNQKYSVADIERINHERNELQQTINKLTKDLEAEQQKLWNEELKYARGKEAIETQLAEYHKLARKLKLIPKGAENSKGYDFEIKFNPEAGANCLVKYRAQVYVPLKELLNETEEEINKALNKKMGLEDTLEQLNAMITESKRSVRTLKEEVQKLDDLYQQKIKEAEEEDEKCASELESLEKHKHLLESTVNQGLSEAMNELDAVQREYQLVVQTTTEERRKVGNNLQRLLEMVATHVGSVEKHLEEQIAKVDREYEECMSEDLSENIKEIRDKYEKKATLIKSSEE

In the experiment the target is CENP-T^6D (CENP-T^6D-GFP-Spy-tag) (human, UniProt Q96BT3 1-242, T11D | T27D | S47D | T85D | T195D | S201D). Description: TIRF microscopy of single molecules.

Results are given in words; binding and its absence hold for the method and conditions named.

“Human Ndc80 ΔSpc24/25 complex (from UniProt O14777 1-506; Q9BZD4 1-348)”: the binding entry is “no binding (tested: 200 nM)”.
